Source: paper PMC11633172
For at least one entry, the source does not settle the construct or the ends of the probe. Where cells or extracts were used, other partners may take part. For some assays here: Protein sequences can lack the tags named with them.

Assays:
[1] = molecular target: T1, EIN_066100 (MAK16 homolog) (Entamoeba invadens (IP-1)) (UniProt A0A0A1TXQ0); assay: EMSA supershift; conditions: anti-Myc supershift, stronger than for EIN_085620, anti-actin gave none, poly(dI-dC); 20 uL with 2 uL 10x EMSA buffer (10 mM Tris-HCl pH 7.9, 50 mM NaCl, 1 mM EDTA, 3% glycerol, 0.05% BSA), 6 ug nuclear extract, 1 ug/uL poly(dI-dC), 50 fmol probe; protein in an extract; protein details: Myc; label: radiolabeled
T1 sequence (looked up, limits assumed): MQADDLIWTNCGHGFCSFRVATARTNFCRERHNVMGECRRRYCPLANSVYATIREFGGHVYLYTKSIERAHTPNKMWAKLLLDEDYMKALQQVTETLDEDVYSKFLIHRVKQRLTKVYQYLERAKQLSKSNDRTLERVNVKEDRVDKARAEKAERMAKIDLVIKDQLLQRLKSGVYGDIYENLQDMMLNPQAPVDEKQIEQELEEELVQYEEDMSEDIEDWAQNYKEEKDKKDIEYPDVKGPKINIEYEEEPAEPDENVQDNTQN

[2] = test system: EIN_085620 (Esf2 homolog, RRM protein) (Entamoeba invadens (IP-1)); assay: EMSA supershift; conditions: anti-Myc supershift, less strong than for EIN_066100, anti-actin gave none, poly(dI-dC); 20 uL with 2 uL 10x EMSA buffer (10 mM Tris-HCl pH 7.9, 50 mM NaCl, 1 mM EDTA, 3% glycerol, 0.05% BSA), 6 ug nuclear extract, 1 ug/uL poly(dI-dC), 50 fmol probe; protein in an extract; protein details: Myc; label: radiolabeled

## ACGTCAGTTTTTTCACTTTCTTTTCAGT / ACGTACTGAAAAGAAAGTGAAAAAACTG [M9 WT probe]
[1]
  binding result: binds
[2]
  binding result: binds
